The list shows only some results of the screen, not a fair sample: it is rich in T/C values a quarter to a half above the control, in often repeated tests (any T/C) and in doses without a T/C. Other doses and runs of a compound stand elsewhere. T/C is the treated group as % of the vehicle group. Some doses have a count of surviving animals in place of a T/C: the source files T/C as zero there, which appears to mark a toxic dose or a test without result, not a measured value. Some survivor counts are full or nearly so, which does not show that the dose was tolerated: survival well below the control is almost never listed, so the zero probably covers shortened survival too. Survivors were counted at the toxicity check, usually on the fifth day, unless a day is given; later deaths do not show. Schedule codes are those of the source, taken here to give the interval after Q, in days (D) or hours (H), and the number of doses after X. Some schedule codes hold Z or #, which are not explained here. Where survival is the endpoint, this PubChem deposit counts one and a half times the control or more as active, and values a quarter to a half above the control carry no call in these data; other NCI protocols may use other cut-offs.

For this experiment, the system named is L1210 leukemia ip in BDF1 mice, survival T/C. The experiment is described as follows: NCI In Vivo Anticancer Drug Screen. Data for tumor model L1210 Leukemia (intraperitoneal) in B6D2F1 (BDF1) mice. To be noted: higher T/C = longer survival.
Setting [1] is: T/C endpoint: mean survival time, dose: 400.0 mg/kg/injection, schedule: Q04DX002 (ip), vehicle: Klucel (hydroxypropylcellulose) (HPC).
The mark [2] stands for this setting: T/C endpoint: mean survival time, dose: 200.0 mg/kg/injection, schedule: Q04DX003 (ip), vehicle: saline with Tween-80.

As to `CC(=O)OC1(C)CC(C)C(=O)C(C(O)CC2CC(=O)NC(=O)C2)C1` (stereo not drawn), the T/C (T/C endpoint: mean survival time, dose: 0.13 mg/kg/injection, schedule: Q01DX009 (ip), vehicle: water) is 125 % of control; the T/C (T/C endpoint: mean survival time, dose: 0.25 mg/kg/injection, schedule: Q01DX009 (ip), vehicle: water) is 135 % of control; the T/C (T/C endpoint: mean survival time, dose: 0.4 mg/kg/injection, schedule: Q01DX009 (ip), vehicle: saline with Tween-80) was 129 % of control; the T/C (T/C endpoint: mean survival time, dose: 0.6 mg/kg/injection, schedule: Q01DX009 (ip), vehicle: saline) was 131 % of control. Also, the survivor count is 8 of 10 (T/C endpoint: mean survival time, dose: 0.3 mg/kg/injection, schedule: Q01DX009 (ip), vehicle: saline with Tween-80); 5 of 10 (T/C endpoint: mean survival time, dose: 0.6 mg/kg/injection, schedule: Q01DX009 (ip), vehicle: saline with Tween-80); 5 of 6 (T/C endpoint: mean survival time, dose: 1.0 mg/kg/injection, schedule: Q01DX009 (ip), vehicle: saline); 0 of 10 (T/C endpoint: mean survival time, dose: 1.2 mg/kg/injection, schedule: Q01DX009 (ip), vehicle: saline with Tween-80); 1 of 6 (T/C endpoint: mean survival time, dose: 2.0 mg/kg/injection, schedule: Q01DX009 (ip), vehicle: water); 5 of 10 (T/C endpoint: mean survival time, dose: 8.0 mg/kg/injection, schedule: Q04DX003 (ip), vehicle: saline). Also, the survivor count is reported as 2 of 6 (T/C endpoint: mean survival time, dose: 8.0 mg/kg/injection, schedule: Q04DX003 (ip), vehicle: water); 4 of 10 (T/C endpoint: mean survival time, dose: 16.0 mg/kg/injection, schedule: Q01DX001 (ip), vehicle: saline); 6 of 10 (T/C endpoint: mean survival time, dose: 16.0 mg/kg/injection, schedule: Q08DX002 (ip), vehicle: saline); 9 of 10 (T/C endpoint: mean survival time, dose: 125.0 micrograms/kg/injection, schedule: Q03HX024 (ip), vehicle: saline); 6 of 10 (T/C endpoint: mean survival time, dose: 250.0 micrograms/kg/injection, schedule: Q03HX016 (ip), vehicle: saline); 10 of 10 (T/C endpoint: mean survival time, dose: 250.0 micrograms/kg/injection, schedule: Q03HX024 (ip), vehicle: saline). The survivor count is, setting by setting: (T/C endpoint: mean survival time, dose: 500.0 micrograms/kg/injection, schedule: Q01DX009 (ip), vehicle: saline) 8 of 10; (T/C endpoint: mean survival time, dose: 500.0 micrograms/kg/injection, schedule: Q03HX008 (ip), vehicle: saline) 0 of 10; (T/C endpoint: mean survival time, dose: 500.0 micrograms/kg/injection, schedule: Q03HX016 (ip), vehicle: saline) 2 of 10; (T/C endpoint: mean survival time, dose: 500.0 micrograms/kg/injection, schedule: Q03HX024 (ip), vehicle: saline) 0 of 10; (T/C endpoint: mean survival time, dose: 1000.0 micrograms/kg/injection, schedule: Q01DX009 (ip), vehicle: saline) 6 of 10; (T/C endpoint: mean survival time, dose: 1000.0 micrograms/kg/injection, schedule: Q03HX008 (ip), vehicle: saline) 0 of 10. The survivor count reads like this: (T/C endpoint: mean survival time, dose: 1000.0 micrograms/kg/injection, schedule: Q03HX016 (ip), vehicle: saline) 0 of 10; (T/C endpoint: mean survival time, dose: 1000.0 micrograms/kg/injection, schedule: Q03HX024 (ip), vehicle: saline) 0 of 10; (T/C endpoint: mean survival time, dose: 2000.0 micrograms/kg/injection, schedule: Q01DX009 (ip), vehicle: saline) 10 of 10; (T/C endpoint: mean survival time, dose: 2000.0 micrograms/kg/injection, schedule: Q03HX008 (ip), vehicle: saline) 0 of 10; (T/C endpoint: mean survival time, dose: 2000.0 micrograms/kg/injection, schedule: Q03HX016 (ip), vehicle: saline) 0 of 10; (T/C endpoint: median survival time, dose: 16.0 mg/kg/injection, schedule: Q04DX003 (ip), vehicle: saline) 5 of 8.
Regarding `O=c1sc(=S)[nH]c2ccccc12`, the survivor count (T/C endpoint: mean survival time, dose: 400.0 mg/kg/injection, schedule: Q04DX003 (ip), vehicle: Klucel (hydroxypropylcellulose) (HPC)) is on record as 3 of 6.
Consider `O=C(O)c1cc(Br)cc(Cl)c1Br`, for which the survivor count under setting [1] is 3 of 3.
For the compound `NCCc1ccc(F)cc1`, the survivor count (T/C endpoint: mean survival time, dose: 400.0 mg/kg/injection, schedule: Q01DX009 (ip), vehicle: saline) is on record as 0 of 6.
Regarding `C=CCOc1ccccc1C`, for the setting “T/C endpoint: mean survival time, dose: 400.0 mg/kg/injection, schedule: Q01DX001 (ip), vehicle: saline”, the survivor count is 1 of 4.
For the compound `OC1C2CCC(C2)C1C(O)(C(F)(F)F)C(F)(F)F` (stereo not drawn), the survivor count (T/C endpoint: mean survival time, dose: 100.0 mg/kg/injection, schedule: Q04DX003 (ip), vehicle: saline with Tween-80) is 2 of 6; the survivor count under setting [2] is recorded as 0 of 6; the survivor count (T/C endpoint: mean survival time, dose: 400.0 mg/kg/injection, schedule: Q04DX003 (ip), vehicle: saline with Tween-80) is listed as 0 of 6.
Take `O=c1[nH]c2ccccc2nc1C(Cl)(Cl)Cl`: the survivor count under setting [1] was 1 of 3.
As to `CON1C(=O)c2ccccc2S1=O` (stereo not drawn), the survivor count under setting [1] is given as 0 of 3.
Consider `Clc1ccc(CSc2ncc(Br)c(N3CC3)n2)c(Cl)c1`, for which the survivor count (T/C endpoint: mean survival time, dose: 59.0 mg/kg/injection, schedule: Q01DX Z (ip), vehicle: methylcellulose (MC)) was 5 of 6.
With `CCOC(=O)C(CC(C)C)NC(=O)C(N)Cc1ccc(N(CCCl)CCCl)cc1` (stereo not drawn), the T/C (T/C endpoint: mean survival time, dose: 5.0 mg/kg/injection, schedule: Q01DX009 (ip), vehicle: water) was 131 % of control; the T/C (T/C endpoint: mean survival time, dose: 10.0 mg/kg/injection, schedule: Q01DX009 (ip), vehicle: water) is 142 % of control; the T/C (T/C endpoint: mean survival time, dose: 20.0 mg/kg/injection, schedule: Q01DX009 (ip), vehicle: water) is 131 % of control. Also, the survivor count by setting is: (T/C endpoint: mean survival time, dose: 40.0 mg/kg/injection, schedule: Q01DX009 (ip), vehicle: water) 4 of 6; (T/C endpoint: mean survival time, dose: 80.0 mg/kg/injection, schedule: Q01DX009 (ip), vehicle: water) 0 of 6.
On to `N#CC(Oc1ccccc1)c1ccccc1` (stereo not drawn), for which the T/C under setting [2] was 132 % of control.
Regarding `Cc1ccc2nc3c(cc(F)c4ccccc43)c(C)c2c1`, under “T/C endpoint: mean survival time, dose: 200.0 mg/kg/injection, schedule: Q01DX009 (ip), vehicle: saline with Tween-80”, the survivor count is 1 of 3.
On to `O=C(NC(Cc1ccccc1)C(=O)CBr)OCc1ccccc1` (stereo not drawn), for which the survivor count reads like this: (T/C endpoint: mean survival time, dose: 200.0 mg/kg/injection, schedule: Q01DX001 (ip), vehicle: saline with Tween-80) 0 of 6; (T/C endpoint: mean survival time, dose: 400.0 mg/kg/injection, schedule: Q01DX001 (ip), vehicle: saline with Tween-80) 2 of 6.
For the compound `O=C1/C(=C(/c2ccccc2)N2CCOCC2)Cc2ccccc21`, the survivor count (T/C endpoint: mean survival time, dose: 50.0 mg/kg/injection, schedule: Q04DX003 (ip), vehicle: saline with Tween-80) is 5 of 6.
`NC(CSS(=O)(=O)O)=NCCCOCc1ccccc1`: the survivor count (T/C endpoint: mean survival time, dose: 50.0 mg/kg/injection, schedule: Q04DX002 (ip), vehicle: Klucel (hydroxypropylcellulose) (HPC)) is given as 0 of 3; the survivor count (T/C endpoint: mean survival time, dose: 100.0 mg/kg/injection, schedule: Q04DX002 (ip), vehicle: Klucel (hydroxypropylcellulose) (HPC)) is 1 of 3; the survivor count (T/C endpoint: mean survival time, dose: 200.0 mg/kg/injection, schedule: Q04DX002 (ip), vehicle: Klucel (hydroxypropylcellulose) (HPC)) is recorded as 0 of 3; the survivor count under setting [1] is 0 of 3.
Consider `OC/C=C/c1cccs1`, for which the survivor count (T/C endpoint: mean survival time, dose: 400.0 mg/kg/injection, schedule: Q04DX002 (ip), vehicle: saline) is listed as 0 of 3.

(Values after PubChem BioAssay AID248 (DTP/NCI, 2004).)
